# Record: PubChem BioAssay AID1259308 (NCATS, 2017)
# Assay: 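Candidate targets for better recombinant protein yield in mammalian cells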 (primary screen)
# Cells: human HEK293 embryonic kidney cells stably expressing firefly luciferase (HEK-CMV-Luc2-Hygro)
# Reagent: single siRNA against human genes, 0.8 pmol siRNA per well
# Time to read-out: 72 h
# Measurement: 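Luciferase light (ONE-Glo) measured on one replicate plate set and viability (CellTiter-Glo) on the other, scaled to a negative control siRNA, with robust z-scores and luciferase per cell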
# Scale: total luciferase, z-score and total luciferase, % of control: higher = more reporter protein produced; luciferase per cell, z-score: higher = more reporter output per viable cell
# Rule for the call: 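An siRNA counts as active if its total luciferase robust z-score exceeds 3; genes with two or more such siRNAs out of three were retested with fresh siRNAs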
# Meaning of the calls: active = raised luciferase; inactive = no rise
# In all, the deposit lists about 59,000 reagents; below is a part drawn at random. About 1,510 of all reagents (2.6%) were called active. 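Calls use total luciferase alone and ignore viability, so some active siRNAs may act by altering cell number.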 A number with no mark means an inactive call. Reagents against one gene are numbered here. Not all columns of the deposit are shown.
gene knocked down,reagent no.,"total luciferase, z-score","total luciferase, % of control","luciferase per cell, z-score"
TM2D2 (TM2 domain containing 2),1,-0.14,79.1,1.21
TM2D2 (TM2 domain containing 2),2,0.119,84.3,-0.411
TM2D2 (TM2 domain containing 2),3,-0.896,64.1,-1.19
IFNL3 (interferon lambda 3),1,5.83 (active),198,3.93
IFNL3 (interferon lambda 3),2,1.19,106,0.196
IFNL3 (interferon lambda 3),3,2.83,138,2.33
CASP8AP2 (caspase 8 associated protein 2),1,5.5 (active),191,4.39
CASP8AP2 (caspase 8 associated protein 2),2,6.75 (active),216,4.23
CASP8AP2 (caspase 8 associated protein 2),3,3 (active),142,2.16
BEX1 (brain expressed X-linked 1),1,-0.302,75.9,0.872
BEX1 (brain expressed X-linked 1),2,-0.771,66.6,-0.893
BEX1 (brain expressed X-linked 1),3,0.216,86.2,0.262
"GPAT2 (glycerol-3-phosphate acyltransferase 2, mitochondrial)",1,-0.0189,81.5,-0.0519
"GPAT2 (glycerol-3-phosphate acyltransferase 2, mitochondrial)",2,0.184,85.5,-0.0685
"GPAT2 (glycerol-3-phosphate acyltransferase 2, mitochondrial)",3,0.389,89.6,-0.115
NSA2 (NSA2 ribosome biogenesis factor),1,-2.17,38.7,-2
NSA2 (NSA2 ribosome biogenesis factor),2,-0.0945,80,-0.115
NSA2 (NSA2 ribosome biogenesis factor),3,1.55,113,1.11
SOD1 (superoxide dismutase 1),1,-1.37,54.7,-0.933
SOD1 (superoxide dismutase 1),2,0.685,95.5,0.633
SOD1 (superoxide dismutase 1),3,1.75,117,1.8
ALS2 (alsin Rho guanine nucleotide exchange factor ALS2),1,0.696,95.7,-0.185
ALS2 (alsin Rho guanine nucleotide exchange factor ALS2),2,-1.52,51.6,-2.27
ALS2 (alsin Rho guanine nucleotide exchange factor ALS2),3,0.499,91.8,-0.62
TM4SF18 (transmembrane 4 L six family member 18),1,2.23,126,1.4
TM4SF18 (transmembrane 4 L six family member 18),2,-0.371,74.5,-0.614
TM4SF18 (transmembrane 4 L six family member 18),3,0.0954,83.8,1.04
LRBA-AS1 (LRBA antisense RNA 1),1,0.102,83.9,-0.164
LRBA-AS1 (LRBA antisense RNA 1),2,3.12 (active),144,2.64
LRBA-AS1 (LRBA antisense RNA 1),3,-0.367,74.6,0.668
TAS2R3 (taste 2 receptor member 3),1,-0.644,69.1,-0.359
TAS2R3 (taste 2 receptor member 3),2,1.3,108,1.73
TAS2R3 (taste 2 receptor member 3),3,-0.387,74.2,-0.441
TOR1A (torsin family 1 member A),1,0.619,94.2,0.388
TOR1A (torsin family 1 member A),2,0.746,96.7,0.595
TOR1A (torsin family 1 member A),3,0.391,89.7,-0.225

Entries above whose target name begins with G or g (3):
gene knocked down,reagent no.,"total luciferase, z-score","total luciferase, % of control","luciferase per cell, z-score"
"GPAT2 (glycerol-3-phosphate acyltransferase 2, mitochondrial)",1,-0.0189,81.5,-0.0519
"GPAT2 (glycerol-3-phosphate acyltransferase 2, mitochondrial)",2,0.184,85.5,-0.0685
"GPAT2 (glycerol-3-phosphate acyltransferase 2, mitochondrial)",3,0.389,89.6,-0.115

Continued.
gene knocked down,reagent no.,"total luciferase, z-score","total luciferase, % of control","luciferase per cell, z-score"
KCTD8 (potassium channel tetramerization domain containing 8),1,1.89,119,1.33
KCTD8 (potassium channel tetramerization domain containing 8),2,-2.15,39,-2.19
KCTD8 (potassium channel tetramerization domain containing 8),3,-1.22,57.6,-1.1
CFI (complement factor I),1,0.508,92,0.0846
CFI (complement factor I),2,2.9,140,2.41
CFI (complement factor I),3,0.817,98.1,0.316
RUNDC3B (RUN domain containing 3B),1,0.208,86,0.26
RUNDC3B (RUN domain containing 3B),2,2.57,133,2.15
RUNDC3B (RUN domain containing 3B),3,0.549,92.8,0.246
RPP14 (ribonuclease P/MRP subunit p14),1,-0.614,69.7,-0.714
RPP14 (ribonuclease P/MRP subunit p14),2,-1.34,55.3,-1.35
RPP14 (ribonuclease P/MRP subunit p14),3,0.0634,83.1,-0.0876
STN1 (STN1 subunit of CST complex),1,1.71,116,1.78
STN1 (STN1 subunit of CST complex),2,0.467,91.2,0.36
STN1 (STN1 subunit of CST complex),3,0.525,92.3,0.142
ZSCAN25 (zinc finger and SCAN domain containing 25),1,1.43,110,1.14
ZSCAN25 (zinc finger and SCAN domain containing 25),2,0.3,87.9,0.00424
ZSCAN25 (zinc finger and SCAN domain containing 25),3,-0.47,72.5,-0.337
NDUFS1 (NADH:ubiquinone oxidoreductase core subunit S1),1,0.018,82.2,-0.514
NDUFS1 (NADH:ubiquinone oxidoreductase core subunit S1),2,0.248,86.8,0.359
NDUFS1 (NADH:ubiquinone oxidoreductase core subunit S1),3,2.49,131,1.96
